Results as given in paper PMC10556770.
Results are given in words; binding and its absence hold for the method and conditions named. In cells and extracts the contact can be indirect. Some binding calls cover weakened binding; strength is not graded here. Tags and fused reporters may be left off the sequences shown.

Biological target: T1, FLAG-tagged Sentrin/SUMO-specific protease 1 (SENP1) (UniProt Q9P0U3)
T1 sequence: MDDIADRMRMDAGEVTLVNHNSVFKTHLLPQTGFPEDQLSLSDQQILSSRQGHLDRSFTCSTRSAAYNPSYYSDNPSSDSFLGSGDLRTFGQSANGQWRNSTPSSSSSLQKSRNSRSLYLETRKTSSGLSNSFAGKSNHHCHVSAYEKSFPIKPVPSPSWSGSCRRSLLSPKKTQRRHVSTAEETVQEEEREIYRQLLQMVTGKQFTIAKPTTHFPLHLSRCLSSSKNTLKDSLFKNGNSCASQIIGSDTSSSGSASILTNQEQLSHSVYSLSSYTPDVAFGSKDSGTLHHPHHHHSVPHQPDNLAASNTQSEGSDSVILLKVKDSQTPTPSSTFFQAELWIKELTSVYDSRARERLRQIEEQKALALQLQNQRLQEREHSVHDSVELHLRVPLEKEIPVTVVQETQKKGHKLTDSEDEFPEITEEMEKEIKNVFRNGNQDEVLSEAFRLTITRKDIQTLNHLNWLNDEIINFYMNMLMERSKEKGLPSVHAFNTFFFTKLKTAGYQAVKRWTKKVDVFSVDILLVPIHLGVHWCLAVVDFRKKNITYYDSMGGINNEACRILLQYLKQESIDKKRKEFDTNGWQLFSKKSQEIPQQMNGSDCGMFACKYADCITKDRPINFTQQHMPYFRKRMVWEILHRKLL
Experiment: co-IP; HEK-293T cells overexpressing HA-KEAP1-WT and FLAG-SENP1; IP with anti-FLAG, WB of KEAP1 and SENP1

binding: binds
Substance: HA-tagged KEAP1 (Kelch-like ECH-associated protein 1), WT (from UniProt Q14145 1-624)
